{"source": "the supplement of paper PMC8728848", "binders": {"B1": {"name": "LlpA (Burkholderia cenocepacia) (protein)", "chain": "MGSSHHHHHHSSGLVPRGSHKILGSNETLSAGNVVYSDNGQYHLAMQTDGNLVVYGPTGAVWQSQTSGSGGNRAVMQGDGNLVIYRADNTAAWSSKTAHPGAFLAVQDDGNVVIYWPRPAWASNTSDPATQQSAESKYLASGSTMSAGQTVTVAQYMLVFQADGNLVLYKNGGNPIWSTGTQGKGATYAVMQSDGNFVIYAGSTALWSTKTNGANGAQLVLQSDGNLVIYAPTAAWSTKFGLVTAPTSTSTSNNGPGSGICVGVCPPHPLNGNPFSPVGVGTTGLGFPTPGYPGAAF"}}, "assay_in_all_cases": "glycan array binding signal (z-score within array); higher = stronger binding", "settings_in_all_cases": "glycan notation: IUPAC condensed, linker removed", "key": {"[1]": {"target": "Gal(b1-4)GlcNAc(b1-6)Gal(b1-4)GlcNAc", "how_it_was_run": "(§1)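 Glycan array data came from 3228 arrays in the Consortium for Functional Glycomics database, and only arrays with an available protein sequence were kept. Glycan names were put into IUPAC-condensed notation, and columns mapping to the same glycan were averaged. The binding signal is a within-array Z-score, averaged across arrays of one protein sequence run at different concentrations or buffers and across linkers. A negative Z-score can be read as non-binding.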"}, "[2]": {"target": "Gal(b1-4)GlcNAc(b1-6)GalNAc", "how_it_was_run": "as §1"}, "[3]": {"target": "Gal(b1-4)GlcNAc(b1-6)[Gal(b1-3)]GalNAc", "how_it_was_run": "as §1"}, "[4]": {"target": "Gal(b1-4)GlcNAc(b1-6)[Gal(b1-4)GlcNAc(b1-3)]GalNAc", "how_it_was_run": "as §1"}, "Gal(b1-4)GlcNAc6P": {"target": "Gal(b1-4)GlcNAc6P", "how_it_was_run": "as §1"}, "Gal(b1-6)Gal": {"target": "Gal(b1-6)Gal", "how_it_was_run": "as §1"}, "Gal3S(b1-3)GalNAc": {"target": "Gal3S(b1-3)GalNAc", "how_it_was_run": "as §1"}, "Gal3S(b1-3)GlcNAc": {"target": "Gal3S(b1-3)GlcNAc", "how_it_was_run": "as §1"}, "[5]": {"target": "Gal3S(b1-3)[Fuc(a1-4)]GlcNAc", "how_it_was_run": "as §1"}, "Gal3S(b1-4)Glc": {"target": "Gal3S(b1-4)Glc", "how_it_was_run": "as §1"}, "Gal3S(b1-4)Glc6S": {"target": "Gal3S(b1-4)Glc6S", "how_it_was_run": "as §1"}, "Gal3S(b1-4)GlcNAc": {"target": "Gal3S(b1-4)GlcNAc", "how_it_was_run": "as §1"}, "[6]": {"target": "Gal3S(b1-4)[Fuc(a1-3)]Glc6S", "how_it_was_run": "as §1"}, "[7]": {"target": "Gal3S(b1-4)[Fuc(a1-3)]GlcNAc", "how_it_was_run": "as §1"}, "[8]": {"target": "Gal3S(b1-4)[Fuc(a1-3)]GlcNAc6S", "how_it_was_run": "as §1"}, "Gal3S4S(b1-4)GlcNAc": {"target": "Gal3S4S(b1-4)GlcNAc", "how_it_was_run": "as §1"}, "Gal3S6S(b1-4)GlcNAc": {"target": "Gal3S6S(b1-4)GlcNAc", "how_it_was_run": "as §1"}, "Gal3S6S(b1-4)GlcNAc6S": {"target": "Gal3S6S(b1-4)GlcNAc6S", "how_it_was_run": "as §1"}, "Gal4S(b1-4)GlcNAc": {"target": "Gal4S(b1-4)GlcNAc", "how_it_was_run": "as §1"}, "Gal4S6S(b1-4)GlcNAc": {"target": "Gal4S6S(b1-4)GlcNAc", "how_it_was_run": "as §1"}, "Gal6P(b1-4)GlcNAc": {"target": "Gal6P(b1-4)GlcNAc", "how_it_was_run": "as §1"}, "Gal6S(b1-3)GlcNAc": {"target": "Gal6S(b1-3)GlcNAc", "how_it_was_run": "as §1"}, "Gal6S(b1-3)GlcNAc6S": {"target": "Gal6S(b1-3)GlcNAc6S", "how_it_was_run": "as §1"}, "Gal6S(b1-4)Glc": {"target": "Gal6S(b1-4)Glc", "how_it_was_run": "as §1"}, "Gal6S(b1-4)Glc6S": {"target": "Gal6S(b1-4)Glc6S", "how_it_was_run": "as §1"}, "Gal6S(b1-4)GlcNAc": {"target": "Gal6S(b1-4)GlcNAc", "how_it_was_run": "as §1"}, "Gal6S(b1-4)GlcNAc6S": {"target": "Gal6S(b1-4)GlcNAc6S", "how_it_was_run": "as §1"}, "GalNAc(a1-3)Gal": {"target": "GalNAc(a1-3)Gal", "how_it_was_run": "as §1"}, "GalNAc(a1-3)GalNAc": {"target": "GalNAc(a1-3)GalNAc", "how_it_was_run": "as §1"}, "[9]": {"target": "GalNAc(a1-3)GalNAc(b1-3)Gal(a1-4)Gal(b1-4)Glc", "how_it_was_run": "as §1"}, "[10]": {"target": "GalNAc(a1-3)GalNAc(b1-3)Gal(a1-4)Gal(b1-4)GlcNAc", "how_it_was_run": "as §1"}, "GalNAc(b1-3)Gal": {"target": "GalNAc(b1-3)Gal", "how_it_was_run": "as §1"}, "[11]": {"target": "GalNAc(b1-3)Gal(a1-4)Gal(b1-4)GlcNAc", "how_it_was_run": "as §1"}, "[12]": {"target": "GalNAc(b1-3)Gal(a1-4)Gal(b1-4)GlcNAc(b1-3)Gal(b1-4)Glc", "how_it_was_run": "as §1"}, "[13]": {"target": "GalNAc(b1-3)Gal(a1-6)Gal(b1-4)Glc", "how_it_was_run": "as §1"}, "GalNAc(b1-3)GalNAc": {"target": "GalNAc(b1-3)GalNAc", "how_it_was_run": "as §1"}, "GalNAc(b1-3)GlcNAc": {"target": "GalNAc(b1-3)GlcNAc", "how_it_was_run": "as §1"}, "GalNAc(b1-4)Gal(b1-4)Glc": {"target": "GalNAc(b1-4)Gal(b1-4)Glc", "how_it_was_run": "as §1"}}, "note": "The other results are listed elsewhere or left out.", "data": [{"binder": "B1", "values": [{"measurement": "glycan array binding signal (z-score)", "setting": "[1]", "value": -0.14}, {"measurement": "glycan array binding signal (z-score)", "setting": "[2]", "value": 1.04}, {"measurement": "glycan array binding signal (z-score)", "setting": "[3]", "value": -0.721}, {"measurement": "glycan array binding signal (z-score)", "setting": "[4]", "value": 1.6}, {"measurement": "glycan array binding signal (z-score)", "setting": "Gal(b1-4)GlcNAc6P", "value": -0.24}, {"measurement": "glycan array binding signal (z-score)", "setting": "Gal(b1-6)Gal", "value": -0.766}, {"measurement": "glycan array binding signal (z-score)", "setting": "Gal3S(b1-3)GalNAc", "value": -0.202}, {"measurement": "glycan array binding signal (z-score)", "setting": "Gal3S(b1-3)GlcNAc", "value": 0.17}, {"measurement": "glycan array binding signal (z-score)", "setting": "[5]", "value": -0.222}, {"measurement": "glycan array binding signal (z-score)", "setting": "Gal3S(b1-4)Glc", "value": 0.72}, {"measurement": "glycan array binding signal (z-score)", "setting": "Gal3S(b1-4)Glc6S", "value": -0.45}, {"measurement": "glycan array binding signal (z-score)", "setting": "Gal3S(b1-4)GlcNAc", "value": 0.867}, {"measurement": "glycan array binding signal (z-score)", "setting": "[6]", "value": 1.83}, {"measurement": "glycan array binding signal (z-score)", "setting": "[7]", "value": -0.583}, {"measurement": "glycan array binding signal (z-score)", "setting": "[8]", "value": 0.427}, {"measurement": "glycan array binding signal (z-score)", "setting": "Gal3S4S(b1-4)GlcNAc", "value": -0.458}, {"measurement": "glycan array binding signal (z-score)", "setting": "Gal3S6S(b1-4)GlcNAc", "value": 1.38}, {"measurement": "glycan array binding signal (z-score)", "setting": "Gal3S6S(b1-4)GlcNAc6S", "value": 1.42}, {"measurement": "glycan array binding signal (z-score)", "setting": "Gal4S(b1-4)GlcNAc", "value": -0.325}, {"measurement": "glycan array binding signal (z-score)", "setting": "Gal4S6S(b1-4)GlcNAc", "value": -0.942}, {"measurement": "glycan array binding signal (z-score)", "setting": "Gal6P(b1-4)GlcNAc", "value": -1.18}, {"measurement": "glycan array binding signal (z-score)", "setting": "Gal6S(b1-3)GlcNAc", "value": -0.403}, {"measurement": "glycan array binding signal (z-score)", "setting": "Gal6S(b1-3)GlcNAc6S", "value": -0.227}, {"measurement": "glycan array binding signal (z-score)", "setting": "Gal6S(b1-4)Glc", "value": 0.354}, {"measurement": "glycan array binding signal (z-score)", "setting": "Gal6S(b1-4)Glc6S", "value": -0.409}, {"measurement": "glycan array binding signal (z-score)", "setting": "Gal6S(b1-4)GlcNAc", "value": 0.308}, {"measurement": "glycan array binding signal (z-score)", "setting": "Gal6S(b1-4)GlcNAc6S", "value": 0.441}, {"measurement": "glycan array binding signal (z-score)", "setting": "GalNAc(a1-3)Gal", "value": -0.606}, {"measurement": "glycan array binding signal (z-score)", "setting": "GalNAc(a1-3)GalNAc", "value": -0.51}, {"measurement": "glycan array binding signal (z-score)", "setting": "[9]", "value": -0.66}, {"measurement": "glycan array binding signal (z-score)", "setting": "[10]", "value": -0.419}, {"measurement": "glycan array binding signal (z-score)", "setting": "GalNAc(b1-3)Gal", "value": -0.11}, {"measurement": "glycan array binding signal (z-score)", "setting": "[11]", "value": -0.417}, {"measurement": "glycan array binding signal (z-score)", "setting": "[12]", "value": -0.472}, {"measurement": "glycan array binding signal (z-score)", "setting": "[13]", "value": 0.819}, {"measurement": "glycan array binding signal (z-score)", "setting": "GalNAc(b1-3)GalNAc", "value": 0.037}, {"measurement": "glycan array binding signal (z-score)", "setting": "GalNAc(b1-3)GlcNAc", "value": -0.95}, {"measurement": "glycan array binding signal (z-score)", "setting": "GalNAc(b1-4)Gal(b1-4)Glc", "value": 1.66}]}]}
